Screen size: about 400,000 compounds; about 13,000 (3.2%) were called active. The inconclusive results got no clear call from the source; some entries with a clear call stand among them for comparison. Calls come from the whole dose curve; as a rule, active = well fitted cell-killing curve with a large enough effect; inconclusive = small, poorly fitted or top-dose-only effect, or effect the other way; inactive = flat fitted curve, though single readings scatter. Potencies beside an inconclusive call are fits to weak or partial responses and may not hold up.
Assay: qHTS assay for MDR1-selective chemotherapeutics: Primary screen using the drug-selected MDR subline cells KB-V1; note: nearly all actives have a fitted effect of over 60% in size
Conditions: KB-V1 MDR cells viability, CellTiter-Glo, 72 h; activity change, negative = cytotoxicity: at 46.1 µM (top of the series)
Summary of the method: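 KB-V1 cells (P-gp-expressing MDR subline of KB-3-1) in phenol-red-free DMEM with 10% FBS were exposed to library compounds over a concentration series for 72 h at 37 degrees C. Viability read by CellTiter-Glo luminescence; concentration-effect curves fitted after normalization.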
% is set by controls: 0 for no effect and ±100 for the full control effect; potency is the fitted concentration of half-maximal effect.

| SMILES | activity change, negative = cytotoxicity | Potency |
| --- | --- | --- |
| COCCSc1ccccc1C(=O)NCc1ccc(S(N)(=O)=O)cc1 | inconclusive: -11.6% |  |
| CC1(C)C(=O)Nc2ccccc2N1C(=O)COC(=O)c1cc([N+](=O)[O-])ccc1N |  | inconclusive: 20.6 µM [cytotoxic, single point] |
| CC(C)CN=C(NS(=O)(=O)c1ccccc1)C(Cl)(Cl)Cl |  | inconclusive: 18.4 µM [cytotoxic, single point] |
| O=C(CSc1nnnn1-c1ccccc1)Nc1ccc(N2CCOCC2)cc1 |  | inconclusive: 20.6 µM [cytotoxic, partial curve, poor fit] |
| O=S(=O)(c1ccccc1)[C@@]1(c2ccccc2)C[C@@H]2ON=C(c3cccc(-c4ccccc4)c3)[C@@H]2C1 |  | inconclusive: 29.1 µM [rising, single point] |
| CCN1C(=O)c2cccc3c(S(=O)(=O)N(C(C)=O)c4ccc(OC(C)=O)cc4)ccc1c23 |  | inconclusive: 29.1 µM [cytotoxic, single point] |
| C#CC(C)(C)NS(=O)(=O)c1cc(-c2nnc(Nc3ccc(C)cc3)c3ccccc23)ccc1C |  | inconclusive: 29.1 µM [cytotoxic, single point] |
| Oc1ccc(N=Cc2ccc(-c3cccs3)s2)cc1 |  | inactive |
| Cc1nn(S(=O)(=O)c2ccc(Cl)cc2)c(C)c1Sc1ccc([N+](=O)[O-])cc1 |  | inconclusive: 20.6 µM [cytotoxic, partial curve, poor fit] |
| COc1ccc(P(=O)(COc2ccc([N+](=O)[O-])cc2)c2ccc(OC)cc2)cc1 |  | active: 4.11 µM |
| CN1CCC[C@@H]1CCNC(=O)c1c(-c2ccc3c(c2)OCO3)noc1-c1ccsc1 |  | inconclusive: 29.1 µM [cytotoxic, single point] |
| Cc1ccc(NC(=O)CN(c2ccccc2)S(=O)(=O)N(C)C)cc1Cl |  | active: 11.6 µM |
| COc1ccc(CNC(=O)C(c2ccccc2F)N(C(=O)c2csnn2)C2CC2)cc1 (configuration not stated) |  | inconclusive: 23.1 µM [cytotoxic, partial curve, poor fit] |
| C=CCOc1ccc(/C=N/Nc2ccccn2)cc1OC |  | inconclusive: 10.3 µM [cytotoxic, partial curve] |
| CC(C(=O)NCc1cccc(Cl)c1)N1C(=O)c2ccccc2C1=O (configuration not stated) |  | inactive |
| O=C(CNCCC1=CCCCC1)Nc1ccccc1N1CCCCC1 |  | inconclusive: 23.1 µM [cytotoxic, single point] |
| CCCC(c1nnnn1C(C)(C)CC)N(CCCO)Cc1cc2cc(C)cc(C)c2[nH]c1=O (configuration not stated) |  | inconclusive: 29.1 µM [cytotoxic, single point] |
| Nc1cc(-c2ccc(Cl)cc2)nn1S(=O)(=O)c1cccc2nsnc12 |  | inconclusive: 29.1 µM [cytotoxic, single point] |
| C=CC[n+]1c(-c2ccc(C)cc2)csc1Nc1c(C)n(C)n(-c2ccccc2)c1=O |  | inconclusive: 7.31 µM [cytotoxic, partial curve] |
| O=C(NC1CCCCC1)c1cc(Cl)ccc1[N+](=O)[O-] |  | inconclusive: 2.31 µM [rising, partial curve, poor fit] |
| CCC(=O)c1ccc(N2CCN(C(=O)c3cc([N+](=O)[O-])ccc3F)CC2)c(F)c1 |  | inconclusive: 16.4 µM [cytotoxic, single point] |

| SMILES | activity change, negative = cytotoxicity | Potency |
| --- | --- | --- |
| O=C(c1ccc(F)cc1)N1CCN2C(=O)c3ccccc3C12c1ccc(Cl)cc1 (configuration not stated) |  | inactive |
| Cc1cccc(NC(=O)C2CCN(C(=O)c3ccc(F)cc3)CC2)n1 |  | inconclusive: 29.1 µM [cytotoxic, single point] |
| Cc1ccccc1NS(=O)(=O)c1cc(C(=O)N2CCc3ccccc3C2)ccc1C |  | active: 7.31 µM |
| c1ccc(CNc2ncnc3scc(-c4cccs4)c23)nc1 |  | inactive |
| Cc1cc(C)nc(SCC(=O)Nc2ncc(Cc3cccc(Cl)c3Cl)s2)n1 |  | inconclusive: 8.2 µM [cytotoxic, partial curve] |
| COc1ccc(OC)c(/C=N/N2CCN(c3ccc(Cl)cc3)CC2)c1 |  | inactive |
| CN(C(=O)c1ccc(Br)o1)C1CCS(=O)(=O)C1 (configuration not stated) |  | inconclusive: 29.1 µM [rising, single point] |
| Cc1c(Cl)cccc1NS(=O)(=O)c1ccc2[nH]cc(C(=O)NC3CCCC3)c(=O)c2c1 |  | inactive |
| O=C(NCC(c1ccco1)N1CCCC1)c1cccc(S(=O)(=O)N2CCCCC2)c1 (configuration not stated) |  | inconclusive: 25.9 µM [cytotoxic, single point] |
| O=C1CN(C(=O)COC(=O)COc2ccc3c(c2)CCC3)c2ccccc2N1 |  | inconclusive: 23.1 µM [rising, single point] |
| CCCC(=O)Nc1cccc(S(=O)(=O)N(C)c2ccccc2)c1 |  | inconclusive: 18.4 µM [cytotoxic, single point] |
| CC(=O)C1=C(c2ccc(Br)cc2)C(=O)c2ccccc2C1=O |  | active: 7.31 µM |
| Cc1ccc(-n2ncc(C(=O)NCCN3CCN(C)CC3)c2C2CCN(C(=O)OC(C)(C)C)CC2)c(C)c1 |  | inconclusive: 29.1 µM [rising, single point] |
| Cc1cc2c(cc1S(=O)(=O)N(C)C1CCCCC1)OCC(=O)N2 |  | inactive |
| O=C(NCc1ccco1)c1cccc(S(=O)(=O)N2CCc3ccccc32)c1 |  | inconclusive: 7.31 µM [cytotoxic, partial curve] |
| CC(=O)c1cccc(NS(=O)(=O)c2ccc3[nH]c4c(c3c2)CCCCCC4)c1 |  | inconclusive: 23.1 µM [cytotoxic, single point] |
| CC(=O)c1sc(-c2ccc(Cl)cc2)cc1N |  | inconclusive: 29.1 µM [cytotoxic, single point] |
| CCOc1cc(C)c(C(C)C)cc1S(=O)(=O)NCc1ccccn1 |  | active: 9.2 µM |
| CCOC(=O)[C@]12CCCC=C1N(Cc1ccco1)C(=O)[C@H](CC(=O)NCCC(C)C)C2 |  | inconclusive: 8.2 µM [cytotoxic, partial curve] |
| Cc1cccc(NC(=O)C(=O)NNC(=O)c2ccc(C(C)(C)C)cc2)c1 |  | inconclusive: 7.31 µM [rising, partial curve] |
| CCCCCNc1c(C(=O)OCC)c(=O)[nH]c2ccccc12 |  | inconclusive: 29.1 µM [cytotoxic, single point] |

Of the compounds above, these contain bromine.

| SMILES | activity change, negative = cytotoxicity | Potency |
| --- | --- | --- |
| CN(C(=O)c1ccc(Br)o1)C1CCS(=O)(=O)C1 (configuration not stated) |  | inconclusive: 29.1 µM [rising, single point] |
| CC(=O)C1=C(c2ccc(Br)cc2)C(=O)c2ccccc2C1=O |  | active: 7.31 µM |

Source: PubChem BioAssay AID1347076 (National Center for Advancing Translational Sciences (NCATS), 2019)
